Values from PubChem BioAssay AID602203 (INSERM, 2012).
Aim: 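Genes whose knock-down alters cisplatin killing of lung cancer cells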 (follow-up of hits). System: human A549 lung cancer cells. Knock-down reagent: siRNA pair against human genes. Conditions: cisplatin at a dose killing half of control-siRNA cells, given 48 h after transfection. Measured: 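Cisplatin at a dose killing 50% of control cells, 48 h post-transfection; each siRNA +1 protective, -1 sensitizing, 0 if toxic (LDH) or antiproliferative (WST-1); per-gene sum and mean death change versus control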. Scale: summed siRNA score for cisplatin death: higher = more siRNAs reduced cisplatin-induced cell death; change in cisplatin death versus control: higher = fewer cells died than in control. Rule for the call: In these data the active calls have summed siRNA score for cisplatin death at about -3 or lower, or at about 3 or higher.
Shown is an unselected part of 999 deposited reagents. Of all reagents, 85 (8.5%) got an active call. 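Unclear how single-siRNA scores of -1, 0 or +1 give the printed -4 to 4 range; calls lie near -3 or 3 and beyond.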 No sequences are given here. Not stated in the record: the amount of reagent, the time to read-out, the dose of the treatment.

| target | summed siRNA score for cisplatin death | change in cisplatin death versus control (percentage points) | Outcome |
| --- | --- | --- | --- |
| LOC402162 | 0 | – | inactive |
| MGC13275 | -1 | – | inactive |
| COL4A3 | -1 | – | inactive |
| LIM2 | -2 | – | inactive |
| CLCN3 | -1 | – | inactive |
| LRP1B | 0 | – | inactive |
| H1-1 | 0 | – | inactive |
| MED27 | 0 | – | inactive |
| DSCR9 | 0 | – | inactive |
| TPM3 | 1 | – | inactive |
| UNC13A | -1 | – | inactive |
| KIZ | -3 | -8.21 | active |
| LATS1 | 0 | – | inactive |
| SMURF1 | -1 | – | inactive |
| NECTIN3 | -1 | – | inactive |
| LOC440202 | 0 | – | inactive |

Continued, starting with the last 3 of the part before.
| target | summed siRNA score for cisplatin death | change in cisplatin death versus control (percentage points) | Outcome |
| --- | --- | --- | --- |
| SMURF1 | -1 | – | inactive |
| NECTIN3 | -1 | – | inactive |
| LOC440202 | 0 | – | inactive |
| CDK16 | 0 | – | inactive |
| LOC146110 | 0 | – | inactive |
| CDC45 | 0 | – | inactive |
| OCLM (retired record) | 0 | – | inactive |
| SEC31B | 2 | – | inactive |
| LOC387742 | 2 | – | inactive |
| TPTEP2 | 0 | – | inactive |
| MTTP | -1 | – | inactive |
| NCOA2 | -1 | – | inactive |
| PLCH1 | -1 | – | inactive |
| TRPV6 | 1 | – | inactive |
| BAZ1A | 1 | – | inactive |
| RSL1D1 | 1 | – | inactive |
| LOC388297 | 1 | – | inactive |
| CD93 | -2 | – | inactive |
| LOC152078 | 2 | – | inactive |
| BAZ2B | -1 | – | inactive |
| CXCL13 | 0 | – | inactive |
| LHX1 | 0 | – | inactive |
| TEX56P | 0 | – | inactive |
| MPP3 | -2 | – | inactive |
